Results from the supplement of paper PMC10338343.
± gives the standard deviation. Only a part is listed here, and it is no random draw. Many entries were measured with a wide error.

Key:
[1] = test system: MILI (PIWIL2) piRISC loaded with piRNA #1 (26 nt); experiment: pre-steady-state target cleavage rate (min^-1); MIWI and MILI are mouse PIWI proteins and EfPiwi is from a freshwater sponge; tags in brackets are library labels; higher = faster piRNA-guided slicing of the target; details: guide: piRNA #1 5'p-UGAGGUAGUAGGUUGUAUAGUAUCCA; auxiliary factor: 500 nM mouse GTSF1
Outline: (§1)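 At 33 °C in HEPES–potassium acetate buffer, a transcribed, DNA-blocked target RNA library […] was exposed for 0–8 or 0–960 min to 1 nM active affinity-purified piRISC carrying a single synthetic guide, with or without 500 nM GTSF1 partner protein. Uncleaved targets were sequenced and normalised to depth and to weakly complementary targets. With three trials pooled and k3 capped at 0.0001 min^-1, a burst-and-steady-state fit produced the pre-steady-state cleavage rate.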

[2] = test system: MIWI (PIWIL1) piRISC loaded with piRNA #1 (30 nt); experiment: as above; details: guide: piRNA #1 5'p-UGAGGUAGUAGGUUGUAUAGUAUCCAGAGG; auxiliary factor: 500 nM mouse GTSF1
Outline: as §1
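Also: 1 nM active piRISC with 0.1 nM target library at 33 °C single turnover.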

| Sequence | pre-steady-state target cleavage rate [1] | pre-steady-state target cleavage rate [2] |
| --- | --- | --- |
| GGAGACCUAUGAUAUCAACCUACUACUCUCA | 0.00108 ± 0.0039 | 0.000319 ± 0.0043 |
| GGAGACCUAUGAUUUCAACCUACUACCUCA | 0.00244 ± 0.0025 | 0.000373 ± 0.0042 |
| GGAGACCUUACUAUACUUGCUACUACCUCA | 0.0548 ± 0.0062 | 0.00197 ± 0.0025 |
| GGAGAGGAUACUAUACAGACCUACUACCUCA | 0.00164 ± 0.0052 | 0.000655 ± 0.0092 |
| GGAGACCUAUGAAUACAACCUACUAGCUGA | 0.000867 ± 0.0072 | 0.000295 ± 0.0076 |
| GGAGACCUAUGAAUACAACCUUCUACCUGA | 0.000652 ± 0.0065 | 0.000256 ± 0.0077 |
| GGAGACCUAUGAAUACAACCAACUACCUGA | 0.00177 ± 0.0038 | 0.000415 ± 0.0073 |
| GGAGACCUAUGAUUACAACCUACUUCGUCA | 0.00164 ± 0.0052 | 0.000705 ± 0.0073 |
| GGAGACCUAUGAAAUCAACCUACUACCUCA | 0.0014 ± 0.0038 | 0.000173 ± 0.018 |
| GGAGACCUAUGAUAACUACCUACUUCCUCA | 0.00205 ± 0.0038 | 0.000571 ± 0.0075 |
| GGAGACCUAUGAUAUGUACCUAACUACCUCA | 0.000241 ± 0.011 | 0.000139 ± 0.025 |
| GGAGACCUAUGAAUACAACCUGACUACCUCA | 0.00187 ± 0.0044 | 0.000176 ± 0.013 |
| GGAGACCAUACUAUACAUACCUACUACCUCA | 0.0032 ± 0.0048 | 0.000961 ± 0.011 |
| GGAGACCUAUGAUAUGAAGCUUCUACCUCA | 0.000122 ± 0.026 | 0.000152 ± 0.014 |
| GGAGACCUAUGAUAUCAACCUACAUGGAGA [g8:g15:cont:t1A] | 0.000409 ± 0.013 | 0.000224 ± 0.016 |
| GGAGACCUAUGAAUACAACCUACUUCCACA | 0.00127 ± 0.0038 | 0.000191 ± 0.0084 |
| GGAGACCUAUGAAUACUACCUUCUACCUCA | 0.00259 ± 0.0031 | 0.000351 ± 0.005 |
| GGAGAGGAUACUAUACAACCUACUUGGUCA | 0.000761 ± 0.0068 | 0.00091 ± 0.0045 |
| GGAGACCUAUGUAUACACCUACUACCUCA | 0.00288 ± 0.0029 | 0.0015 ± 0.0036 |
| GGAGACCUAUGAUAUGUUCCCACUACCUCA | 0.000178 ± 0.019 | 0.000284 ± 0.0076 |

| Sequence | pre-steady-state target cleavage rate [1] | pre-steady-state target cleavage rate [2] |
| --- | --- | --- |
| GGAGAGGAUACUAUACGAACCUACUACCUCA | 0.00135 ± 0.0045 | 0.00126 ± 0.006 |
| GGAGUGGAUACUAUACGAACCUACUACCUCA | 0.000528 ± 0.011 | 0.000683 ± 0.0081 |
| GGAGACCUAUGAUAUGUUCCUACUUCGUCA | 0.000209 ± 0.019 | 0.000346 ± 0.0095 |
| GGAGACCUAUGAAUACAACCUUACUACCUCA | 0.00189 ± 0.0031 | 0.000265 ± 0.0057 |
| GGAGACCUAUCUAUACAACCUUGAACCUCA | 0.000231 ± 0.013 | 0.000157 ± 0.018 |
| GGAGUGGAUACUAUACAACCGUACUACCUCA | 0.00369 ± 0.0022 | 0.000897 ± 0.0065 |
| GGAGACCUAUGAUAUCAACCUACUACCUCC [g2:g15:cont:t1C] | 0.00261 ± 0.0037 | 0.000865 ± 0.0056 |
| GGAGACCUAUGAUAUCAACCUACUACCUCU [g2:g15:cont:t1U] | 0.00186 ± 0.0028 | 0.000315 ± 0.0079 |
| GGAGACCUAUGAUAACAACCUAGUUCCUCA | 0.000566 ± 0.0094 | 0.000156 ± 0.0094 |
| GGAGUGGAUACUAUACAACGAUCUACCUCA | 0.000982 ± 0.004 | 0.000978 ± 0.0061 |
| GGAGACCUAUGAAUCCAACCUACUACCUCA | 0.0013 ± 0.0059 | 0.0015 ± 0.0056 |
| GGAGACCUAACUAUACAACGUUCUACCUCA | 0.00225 ± 0.0061 | 0.00255 ± 0.0046 |
| GGAGACCUAUGAUUACACACCUACUACCUCA | 0.00101 ± 0.0068 | 0.000282 ± 0.0089 |
| GGAGACCUAUGAAUACAAACCUACUACCUCA | 0.00105 ± 0.0043 | 0.000176 ± 0.014 |
| GGAGACCUAUGAUAUCAACCUUGUACCUCA | 0.000889 ± 0.0073 | 0.000159 ± 0.017 |
| GGAGACCUAUGAUAUCAACGUUCUACCUCA | 0.00048 ± 0.0088 | 0.000609 ± 0.0077 |
| GGAGACCUAUGAUAUGUUGGUUCAACCUCA | 0.000351 ± 0.012 | 0.000454 ± 0.0097 |
| GGAGACCUAUGAUAACAACCUACUAACUCA | 0.00238 ± 0.0029 | 0.00215 ± 0.0038 |
| GGAGACCUAUGAAUACAACCUACAUCCUCA | 0.00241 ± 0.0029 | 0.00126 ± 0.0037 |
| GGAGACCUAUGAUAUGUACCUACUACCUCC [g2:g13:cont:t1C] | 0.000125 ± 0.025 | 0.000143 ± 0.013 |

Some values from the list:
pre-steady-state target cleavage rate [2] with GGAGACCUAUGAUAACAACCUACUAACUCA reads 0.00215 ± 0.0038
pre-steady-state target cleavage rate [1] with GGAGUGGAUACUAUACAACCGUACUACCUCA reads 0.00369 ± 0.0022
pre-steady-state target cleavage rate [2] with GGAGACCUAUGAUAUGUUCCUACUUCGUCA reads 0.000346 ± 0.0095

Next part.

| Sequence | pre-steady-state target cleavage rate [1] | pre-steady-state target cleavage rate [2] |
| --- | --- | --- |
| GGAGACCUAUGAUAUCAACAUACUACCUCA | 0.00109 ± 0.0074 | 0.00034 ± 0.01 |
| GGAGACCUAUGAUAACAACCUAGUACGUCA | 0.000198 ± 0.03 | 0.000203 ± 0.0096 |
| GGAGACCUAUGAUAUCAACGUACUACGUCA | 0.00055 ± 0.01 | 0.000185 ± 0.014 |
| GGAGACCUAUGAUUACUACGUACUACCUCA | 0.00234 ± 0.0027 | 0.000314 ± 0.0069 |
| GGAGACCUAUGAUAACAACCAACAACCUCA | 0.00208 ± 0.0039 | 0.000456 ± 0.0059 |
| GGAGACCUAUGAUAAUAACCUACUACCUCA | 0.00265 ± 0.0028 | 0.000812 ± 0.0052 |
| GGAGUGGAUACUAUACAACCUACUAGGUCA | 0.000449 ± 0.0046 | 0.000437 ± 0.0054 |
| GGAGACGAUACUAUACAAGCCUACUACCUCA | 0.00196 ± 0.0044 | 0.000796 ± 0.0071 |
| GGAGACCUAUGAUAUCAACCUACUACCUAA | 0.00177 ± 0.005 | 0.000198 ± 0.017 |
| GGAGACCUAUGAUAACAACCUACUUCCACA | 0.00111 ± 0.0057 | 0.000174 ± 0.01 |
| GGAGACCUAUGAUAAGUUCCUACUACCUCA | 0.000339 ± 0.013 | 0.000628 ± 0.0069 |
| GGAGACCUAACUAUACAACCUAUACCUCA | 0.00138 ± 0.0077 | 0.00012 ± 0.033 |
| GGAGACCUAUGAUAACAACCUGACUACCUCA | 0.00191 ± 0.0035 | 0.000243 ± 0.011 |
| GGAGACCUAUGAUUACAACCUUCUACCUGA | 0.000961 ± 0.0044 | 0.000335 ± 0.006 |
| GGAGACCUAUGAUUACAACCUACUAACUCA | 0.00194 ± 0.0043 | 0.0026 ± 0.0043 |
| GGAGUGGAUACUAUACAACCUACUUCGUCA | 0.000256 ± 0.0099 | 0.00135 ± 0.0034 |
| GGAGACCUAUGAAUACAACCUACUACCCA | 0.00166 ± 0.0043 | 0.000607 ± 0.0072 |
| GGAGACCUAUGAAUACAACCUUCAACCUCA | 0.00213 ± 0.0027 | 0.000253 ± 0.0079 |
| GGAGACCUAUGUACUACAACCUACUACCUCA | 0.00901 ± 0.0026 | 0.00169 ± 0.004 |
| GGAGACCUAUGAUAACAACCUACUACUCA | 0.000448 ± 0.012 | 0.000217 ± 0.012 |
